The subject of this test is P388 leukemia ip, CD2F1 mice, survival T/C. Nature of the test: NCI In Vivo Anticancer Drug Screen. Data for tumor model P388 Leukemia (intraperitoneal) in CD2F1 (CDF1) mice. The conditions noted are these: T/C endpoint: median survival time, higher T/C = longer survival.
[1] abbreviates: dose: 50.0 mg/kg/injection, schedule: Q01DX005 (ip), vehicle: Klucel (hydroxypropylcellulose) (HPC).
Setting [2] is: dose: 100.0 mg/kg/injection, schedule: Q01DX005 (ip), vehicle: Klucel (hydroxypropylcellulose) (HPC).
The mark [3] stands for this setting: dose: 200.0 mg/kg/injection, schedule: Q01DX005 (ip), vehicle: Klucel (hydroxypropylcellulose) (HPC).
The mark [4] stands for this setting: dose: 200.0 mg/kg/injection, schedule: Q01DX009 (ip), vehicle: saline with Tween-80.
[5] abbreviates: dose: 400.0 mg/kg/injection, schedule: Q01DX009 (ip), vehicle: saline with Tween-80.
[6] abbreviates: dose: 100.0 mg/kg/injection, schedule: Q01DX009 (ip), vehicle: saline with Tween-80.
[7] abbreviates: dose: 200.0 mg/kg/injection, schedule: Q01DX005 (ip), vehicle: saline with Tween-80.
[8] abbreviates: dose: 240.0 mg/kg/injection, schedule: Q01DX005 (ip), vehicle: saline with Tween-80.
Where [9] appears, read: dose: 200.0 mg/kg/injection, schedule: Q01DX009 (ip), vehicle: saline.
The mark [10] stands for this setting: dose: 5.0 mg/kg/injection, schedule: Q01DX009 (ip), vehicle: saline.
The mark [11] stands for this setting: dose: 50.0 mg/kg/injection, schedule: Q01DX009 (ip), vehicle: saline with Tween-80.

Molecules are shown by their SMILES. The list does not hold the whole screen: it is rich in T/C values a quarter to a half above the control, in often repeated tests (any T/C) and in doses without a T/C. Other doses and runs of a compound stand elsewhere. T/C: endpoint of the treated group in % of that of the vehicle group. Some doses have a count of surviving animals in place of a T/C: the source files T/C as zero there, which appears to mark a toxic dose or a test without result, not a measured value. Some doses without a T/C left all or most animals alive at the check, yet need not have been tolerated: the source hardly ever lists a survival T/C far under the control, and the zero likely stands for such cases as well. Survivors were counted at the toxicity check, usually on the fifth day, unless a day is given; later deaths do not show. Schedules are NCI's codes, read here as Q, the interval in days (D) or hours (H), X, the number of doses. Some entries were tested several times; their values stand side by side, smallest first. For survival time, the PubChem record calls one and a half times the control and up active, and a quarter to a half above the control has no call in these data; cut-offs in other NCI protocols can differ. Some T/C values are followed by the survivors on the day toxicity was checked, most often the fifth; where none is given, no animal had died by that day.

With `Cc1cc(=O)[nH]c2ccc3ccccc3c12`, the survivor count by setting is: under setting [1], 5 of 5; under setting [2], 5 of 5; under setting [3], 5 of 5.
As for `O=C(Cc1ccncc1)c1cccnc1`, the survivor count reads like this: (dose: 100.0 mg/kg/injection, schedule: Q01DX001 (ip), vehicle: saline) 1 of 6; (dose: 200.0 mg/kg/injection, schedule: Q01DX001 (ip), vehicle: saline) 0 of 6; (dose: 400.0 mg/kg/injection, schedule: Q01DX001 (ip), vehicle: saline) 0 of 6.
On to `CS(=O)(=O)N1CC=CCS1=O` (centres undefined), for which the survivor count (dose: 50.0 mg/kg/injection, schedule: Q01DX009 (ip), vehicle: Klucel (hydroxypropylcellulose) (HPC)) is 0 of 6; the survivor count (dose: 100.0 mg/kg/injection, schedule: Q01DX009 (ip), vehicle: Klucel (hydroxypropylcellulose) (HPC)) is listed as 0 of 6; the survivor count (dose: 200.0 mg/kg/injection, schedule: Q01DX009 (ip), vehicle: Klucel (hydroxypropylcellulose) (HPC)) is on record as 0 of 6.
As for `CCOc1ccc(S(=O)(=O)c2ccc(C)cc2)c2c1no[n+]2[O-]`, the survivor count is recorded as 6 of 6 (dose: 3.75 mg/kg/injection, schedule: Q01DX009 (ip), vehicle: saline with Tween-80) and 6 of 6 (dose: 15.0 mg/kg/injection, schedule: Q01DX009 (ip), vehicle: saline with Tween-80).
For `CN(C)Cc1cc(CN(C)C)c(O)c(CN(C)C)c1`, the survivor count was 2 of 6 under setting [4] and 0 of 6 under setting [5].
Turning to `CC1(c2cccc(N(CCCl)CCCl)c2)NC(=O)NC1=O` (centres undefined), the survivor count is 5 of 6 under setting [6] and 2 of 6 under setting [4].
Consider `CCCn1cc2c3c(cccc31)C1C=C(C)CN(C)C1C2` (centres undefined), for which, under “dose: 50.0 mg/kg/injection, schedule: Q01DX005 (ip), vehicle: saline with Tween-80”, the T/C is 100 [5 of 6 alive], 104, 109, 128 % of control. For the same compound, the survivor count under setting [7] was 3 of 6.
Regarding `COC(=O)[C@H]1[C@H]2C[C@@H]3c4[nH]c5cc(OC)ccc5c4CCN3C[C@H]2C[C@@H](OC(=O)c2cccc(N(C)C)c2)[C@@H]1OC`, the survivor count is, setting by setting: under setting [1], 6 of 6; under setting [3], 3 of 6.
As for `[Cl][Ge]([c]1ccccc1)[c]1ccccc1.[Cl][Ge]([c]1ccccc1)[c]1ccccc1`, the survivor count by setting is: under setting [1], 0 of 6; under setting [2], 0 of 6; under setting [3], 0 of 6.
In the case of `O=C1CCCC(O)=C1[Se]C1=C(O)CCCC1=O`, the survivor count by setting is: (dose: 100.0 mg/kg/injection, schedule: Q04DX002 (ip), vehicle: saline) 0 of 6; (dose: 200.0 mg/kg/injection, schedule: Q04DX002 (ip), vehicle: saline) 1 of 6; (dose: 400.0 mg/kg/injection, schedule: Q04DX002 (ip), vehicle: saline) 0 of 6.
For the compound `COc1cc(/C=N/O)c(SC)cc1OC`, where the note is “dose: 400.0 mg/kg/injection, schedule: Q04DX002 (ip), vehicle: Klucel (hydroxypropylcellulose) (HPC)”, the T/C is 126 % of control [4 of 5 alive].
Take `COc1cccc2c1C(=O)c1c(OC)c3c(c(OC)c1C2=O)C[C@@](O)(C(C)=O)C[C@@H]3OC1CC(N)C(O)C(C)O1` (some centres undefined): the T/C reads like this: (dose: 2.0 mg/kg/injection, schedule: Q01DX009 (ip), vehicle: water) 125 % of control; (dose: 32.0 mg/kg/injection, schedule: Q01DX009 (ip), vehicle: water) 127 and 130 % of control; (dose: 64.0 mg/kg/injection, schedule: Q01DX009 (ip), vehicle: water) 143 % of control.
`O=c1oc2ccccc2c(O)c1C(c1ccc(Cl)cc1)c1c(O)c2ccccc2oc1=O`: the survivor count was 3 of 6 and 4 of 6 (dose: 60.0 mg/kg/injection, schedule: Q01DX005 (ip), vehicle: saline with Tween-80); 3 of 6 (dose: 120.0 mg/kg/injection, schedule: Q01DX005 (ip), vehicle: saline with Tween-80); 0 of 6 under setting [8].
For the compound `S=C(Nc1ccccn1)c1ccccn1`, the survivor count by setting is: under setting [4], 1 of 6; under setting [5], 0 of 6.
As to `CC1(C)NC(=S)N(O)C1(C)C`, the survivor count under setting [9] is on record as 1 of 6.
Regarding `CC(=O)Nc1cc2cc(NS(=O)(=O)c3cc(C(F)(F)F)cc(C(F)(F)F)c3)ccc2oc1=O`, the survivor count reads like this: (dose: 6.0 mg/kg/injection, schedule: Q01DX005 (ip), vehicle: Klucel + Tween-80) 6 of 6; (dose: 25.0 mg/kg/injection, schedule: Q01DX005 (ip), vehicle: Klucel + Tween-80) 6 of 6; (dose: 50.0 mg/kg/injection, schedule: Q01DX005 (ip), vehicle: Klucel + Tween-80) 6 of 6; (dose: 100.0 mg/kg/injection, schedule: Q01DX005 (ip), vehicle: Klucel + Tween-80) 3 of 6; (dose: 200.0 mg/kg/injection, schedule: Q01DX005 (ip), vehicle: Klucel + Tween-80) 2 of 6.
As for `c1cc[c]([Sn][c]2ccccc2)cc1`, the T/C by setting is: (dose: 1.25 mg/kg/injection, schedule: Q01DX009 (ip), vehicle: saline) 137 and 145 % of control; (dose: 2.5 mg/kg/injection, schedule: Q01DX009 (ip), vehicle: saline) 144 % of control; under setting [10], 145 % of control. The survivor count by setting is: under setting [10], 1 of 6; (dose: 10.0 mg/kg/injection, schedule: Q01DX009 (ip), vehicle: saline) 1 of 6.
As to `Cc1cc(N)c2ccccc2c1O`, the survivor count under setting [11] is reported as 6 of 6, the survivor count under setting [6] is on record as 0 of 6 and the survivor count under setting [4] is recorded as 0 of 6.
On to `[CH3][Sn]([CH3])([CH3])[O][N+](=O)[O-]`, for which the survivor count is, setting by setting: (dose: 1.5 mg/kg/injection, schedule: Q01DX009 (ip), vehicle: saline) 5 of 6; (dose: 3.0 mg/kg/injection, schedule: Q01DX009 (ip), vehicle: saline) 0 of 6.
`C[CH2][Sn]([Cl])([CH2]C)[O][Sn]([CH2]C)([CH2]C)[O][Sn]([Cl])([CH2]C)[CH2]C`: the T/C was 125 % of control (dose: 3.12 mg/kg/injection, schedule: Q01DX005 (ip), vehicle: Klucel (hydroxypropylcellulose) (HPC)) and 126 % of control [5 of 6 alive] (dose: 12.5 mg/kg/injection, schedule: Q01DX005 (ip), vehicle: Klucel (hydroxypropylcellulose) (HPC)). For the same compound, the survivor count is, setting by setting: (dose: 25.0 mg/kg/injection, schedule: Q01DX005 (ip), vehicle: Klucel (hydroxypropylcellulose) (HPC)) 0 of 6; under setting [1], 0 of 6; under setting [2], 0 of 6; under setting [3], 0 of 6.
`O=c1c2ccccc2nc(-c2ccc(Cl)cc2)n1O`: under setting [7], the survivor count was 6 of 6.
For `CSc1ncc2c(=O)c3c(ccc4ccccc43)oc2n1`, the survivor count reads like this: (dose: 12.5 mg/kg/injection, schedule: Q01DX009 (ip), vehicle: saline with Tween-80) 6 of 6; (dose: 25.0 mg/kg/injection, schedule: Q01DX009 (ip), vehicle: saline with Tween-80) 6 of 6; under setting [11], 6 of 6; under setting [6], 6 of 6; under setting [4], 6 of 6.
In the case of `CC(/C=C/c1ccccc1)=Nc1ccc(Cl)cc1`, under setting [6], the T/C is 132 % of control. Moreover, under setting [4], the T/C was 132 % of control [4 of 6 alive] and the survivor count is on record as 3 of 6.
In the case of `Cc1cc(C(=O)NN)no1`, the survivor count under setting [9] was 0 of 6.
With `O=C(c1cc2c(cc1Br)OCO2)N1CCc2cc([N+](=O)[O-])ccc21`, the survivor count (dose: 100.0 mg/kg/injection, schedule: Q01DX009 (ip), vehicle: other) is 6 of 6.
On to `c1ccc2c(c1)C[n+]1ccc3ccccc3c1-c1c3ccccc3cc[n+]1C2`, for which, under “dose: 50.0 mg/kg/injection, schedule: Q01DX001 (ip), vehicle: saline”, the survivor count was 5 of 6.
Take `Cc1nc(C#N)c(=N)n(CCCO)c1-c1ccccc1`: the survivor count under setting [8] is 0 of 6.

The values are drawn from PubChem BioAssay AID330 (DTP/NCI, 2004).
